These are yes or no findings as the source states them, for the method shown. In cells and extracts the contact can be indirect. These calls come from enrichment with a bait or labelling near it, and not all partners need be listed.

Chains of the proteins cited; added tags and fusions are not shown.
UniProt P38398: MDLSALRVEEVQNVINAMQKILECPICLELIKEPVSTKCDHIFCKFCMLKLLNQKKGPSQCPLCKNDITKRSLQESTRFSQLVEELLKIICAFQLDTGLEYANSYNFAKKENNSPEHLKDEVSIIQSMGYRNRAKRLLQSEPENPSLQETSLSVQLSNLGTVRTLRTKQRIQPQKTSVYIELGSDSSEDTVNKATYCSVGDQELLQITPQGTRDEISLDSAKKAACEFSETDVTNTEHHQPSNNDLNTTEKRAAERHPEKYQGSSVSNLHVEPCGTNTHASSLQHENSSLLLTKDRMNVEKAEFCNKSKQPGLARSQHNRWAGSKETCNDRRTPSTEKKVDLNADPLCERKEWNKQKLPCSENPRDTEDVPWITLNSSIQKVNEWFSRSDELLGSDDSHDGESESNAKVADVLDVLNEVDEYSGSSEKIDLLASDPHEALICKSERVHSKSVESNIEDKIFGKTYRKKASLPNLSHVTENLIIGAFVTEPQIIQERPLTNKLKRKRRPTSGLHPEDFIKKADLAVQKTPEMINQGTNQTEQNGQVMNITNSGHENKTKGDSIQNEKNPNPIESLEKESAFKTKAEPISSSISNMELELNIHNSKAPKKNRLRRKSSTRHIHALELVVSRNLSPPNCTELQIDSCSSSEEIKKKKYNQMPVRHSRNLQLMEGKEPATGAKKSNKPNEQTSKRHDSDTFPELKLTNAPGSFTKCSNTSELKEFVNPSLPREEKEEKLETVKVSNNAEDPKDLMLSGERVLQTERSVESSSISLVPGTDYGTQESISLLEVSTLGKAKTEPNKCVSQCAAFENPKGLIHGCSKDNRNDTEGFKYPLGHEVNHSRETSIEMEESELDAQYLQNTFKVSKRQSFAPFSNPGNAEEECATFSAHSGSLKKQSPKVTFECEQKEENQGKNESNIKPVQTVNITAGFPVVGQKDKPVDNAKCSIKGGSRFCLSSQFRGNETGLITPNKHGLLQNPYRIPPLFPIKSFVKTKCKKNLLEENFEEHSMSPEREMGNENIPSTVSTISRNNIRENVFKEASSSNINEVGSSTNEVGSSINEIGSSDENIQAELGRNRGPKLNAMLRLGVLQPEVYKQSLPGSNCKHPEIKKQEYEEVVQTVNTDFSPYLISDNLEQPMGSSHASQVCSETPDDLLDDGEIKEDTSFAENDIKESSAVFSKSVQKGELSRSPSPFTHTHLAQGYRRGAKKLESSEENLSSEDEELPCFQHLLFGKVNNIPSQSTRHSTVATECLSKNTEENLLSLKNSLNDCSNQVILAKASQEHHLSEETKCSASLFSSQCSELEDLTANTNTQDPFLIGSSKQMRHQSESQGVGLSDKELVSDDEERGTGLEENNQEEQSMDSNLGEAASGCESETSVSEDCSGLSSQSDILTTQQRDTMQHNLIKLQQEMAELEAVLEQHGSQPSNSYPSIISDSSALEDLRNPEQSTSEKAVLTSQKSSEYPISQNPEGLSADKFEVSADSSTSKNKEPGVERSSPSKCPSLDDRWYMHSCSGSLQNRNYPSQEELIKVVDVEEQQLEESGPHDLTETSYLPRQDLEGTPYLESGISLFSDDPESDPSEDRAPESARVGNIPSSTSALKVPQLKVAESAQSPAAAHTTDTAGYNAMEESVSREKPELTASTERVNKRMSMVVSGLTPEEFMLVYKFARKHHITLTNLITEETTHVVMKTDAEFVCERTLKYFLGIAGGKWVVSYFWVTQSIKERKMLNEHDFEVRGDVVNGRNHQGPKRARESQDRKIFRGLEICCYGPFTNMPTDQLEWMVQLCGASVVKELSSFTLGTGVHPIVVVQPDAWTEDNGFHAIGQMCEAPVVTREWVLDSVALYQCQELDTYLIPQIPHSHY
UniProt P46736: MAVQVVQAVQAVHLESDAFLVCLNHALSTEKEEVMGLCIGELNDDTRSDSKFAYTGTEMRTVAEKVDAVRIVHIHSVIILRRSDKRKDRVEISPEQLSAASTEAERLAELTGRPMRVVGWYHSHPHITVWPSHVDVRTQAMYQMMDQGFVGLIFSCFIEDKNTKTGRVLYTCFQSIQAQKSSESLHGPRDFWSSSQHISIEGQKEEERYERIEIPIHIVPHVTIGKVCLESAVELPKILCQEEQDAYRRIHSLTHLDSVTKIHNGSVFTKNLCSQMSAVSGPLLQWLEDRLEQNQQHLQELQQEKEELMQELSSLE

In this test the target is SFB-BRCA1 (human) (UniProt P38398). The test can be described thus: affinity purification with mass spectrometry; tandem affinity purification of SFB-BRCA1 from the chromatin fraction of HEK 293T cells, before or after IR; streptavidin sepharose, biotin elution, S-protein agarose; NETN buffer, 4 °C.

Consider BRCC36 (from UniProt P46736 1-316), for which the binding result is “binds”.

The values above are taken from paper PMC4728409.
